Measured values reported in article PMC7819943, “Rice protein-binding microarrays: a tool to detect cis-acting elements near promoter regions in rice”.
The list shows a part of the results.

Amino acid sequences for entries named in this document (tags omitted).
UniProt Q0JBA9, entry or part of it: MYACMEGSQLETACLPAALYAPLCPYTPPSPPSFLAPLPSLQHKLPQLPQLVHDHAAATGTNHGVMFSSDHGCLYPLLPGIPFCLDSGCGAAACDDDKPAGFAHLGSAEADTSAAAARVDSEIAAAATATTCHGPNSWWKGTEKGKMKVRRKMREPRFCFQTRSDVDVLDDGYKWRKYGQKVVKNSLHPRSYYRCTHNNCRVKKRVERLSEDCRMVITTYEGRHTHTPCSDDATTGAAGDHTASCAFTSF

Biological target: OsWRKY34 (Oryza sativa, UniProt Q0JBA9 1-250)
Assay: protein-binding microarray (RPBM); PBS, 2% BSA, 51.3 ng/ul salmon testes DNA, 50 uM zinc acetate, 200 nM TF, 25 C, 1 h; high values mean tight binding
Conditions: protein: recombinant; tags: N-terminal polyhistidine and DsRed monomer fusion (pET32a); label: CyDye5-dUTP incorporated in the synthesized complementary strand; 3' TTTTT single-stranded linker to array surface; dsDNA, one strand shown
Procedure, shortened: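 Using Ni–NTA, transcription factors fused N-terminally to polyhistidine and DsRed were purified after expression in E. coli BL21-CodonPlus. These were incubated at 200 nM with a blocked, double-stranded custom Agilent array for 1 h at 25 °C in a buffer containing 50 µM zinc acetate, and the array was washed. The binding signal is per-feature fluorescence intensity (arbitrary units) on an Axon 4000B scanner.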

In order of rising binding signal:
1. CTTCAACTCTCACTCCATCATTCAATACTGGGCCTTGCTTCGGAGTCACCTAGTGCAG  8040 fluorescence intensity (a.u.)
2. ATGTCTCTTCTCCATCCCACCAGTGTTGACTCTTGCGGCTCGGAGTCACCTAGTGCAG  8070 fluorescence intensity (a.u.)
3. CAACCATGAGGGGAGGGGAGGCCATAGTGGAGGACTGGAGCGGAGTCACCTAGTGCAG  8080 fluorescence intensity (a.u.)
4. TCTCGCTCCTCATGCTCCTCTCCCGGCGGCGACGCTATGCCGGAGTCACCTAGTGCAG  8080 fluorescence intensity (a.u.)
5. GCAAATGTACCTATTTAAGCCCCTGCATTCCCGCGTATTCCGGAGTCACCTAGTGCAG  8130 fluorescence intensity (a.u.)
6. GGTATATGTTGCACGTAGTGTGCGCTTGTGGTTTGTGGTGCGGAGTCACCTAGTGCAG  8200 fluorescence intensity (a.u.)
7. GAGTATAGTAAGCCCTTGTTTAGTTCCCAACTTTTTCTTCCGGAGTCACCTAGTGCAG  8210 fluorescence intensity (a.u.)
8. CCTGTACTATGGTAGTAATTACTTTATACTTAAAATTTCCCGGAGTCACCTAGTGCAG  8230 fluorescence intensity (a.u.)
9. AATGTTGAAATGGGTTGAGTGGTCTCAAGTTGGTCAGGATCGGAGTCACCTAGTGCAG  8240 fluorescence intensity (a.u.)
10. AAACCCTAGCCGCCGCCGCCGCCGCCTCCGCGTCCGCCTCCGGAGTCACCTAGTGCAG  8260 fluorescence intensity (a.u.)
11. TTGCGTACTCTGGGTGTGTTTTAGTGCACCTGTAATTTCCCGGAGTCACCTAGTGCAG  8270 fluorescence intensity (a.u.)
12. CGGTTTTTTAGGGAATGGTTTTCCACGGTTTTCTTTTTTCCGGAGTCACCTAGTGCAG  8320 fluorescence intensity (a.u.)
13. CCTACCCCTACCGCTCCTGCCTGCTTCGCCCGCCGCCGCCCGGAGTCACCTAGTGCAG  8340 fluorescence intensity (a.u.)
14. TATGGTTGAGAGACGCGAGTAAAACTTGACTTTTTTTTTACGGAGTCACCTAGTGCAG  8340 fluorescence intensity (a.u.)
15. GTTTATTTAACGTGCTCAGTGGTTTCTTTTGTCATTGGAGCGGAGTCACCTAGTGCAG  8360 fluorescence intensity (a.u.)
16. CGCCGGCGCTCCAGCTCCCGTCCCTGCAGACGTGCGAAAGCGGAGTCACCTAGTGCAG  8370 fluorescence intensity (a.u.)
17. TCATGGATTGGCAGCACGCTATCCTGGACGTCATTGTTTCCGGAGTCACCTAGTGCAG  8380 fluorescence intensity (a.u.)
18. GCAGGGTCTGTTTAGTTTCCAAATAAAAATTTTCCACAATCGGAGTCACCTAGTGCAG  8390 fluorescence intensity (a.u.)
19. GTTGGTTGATTACATTTTGAATGCGTGGTTGAGATCGAGTCGGAGTCACCTAGTGCAG  8400 fluorescence intensity (a.u.)
20. GATTAGTCATCCGTGACGGGCTCCTTACTACGCTGGTTTGCGGAGTCACCTAGTGCAG  8430 fluorescence intensity (a.u.)
21. CTTCTACATTTACACCATCTAGTAATCTTGTTAAGCATCTCGGAGTCACCTAGTGCAG  8440 fluorescence intensity (a.u.)
22. CTCCCACGAACCGCACCTCACCTTCTTTCTCTTTCATTCTCGGAGTCACCTAGTGCAG  8450 fluorescence intensity (a.u.)
23. CTCGTTTAGTTGGGGAAAATTTTTCAGTTTGGTTGTCACACGGAGTCACCTAGTGCAG  8570 fluorescence intensity (a.u.)
24. TCCTCCTCGCTCTCGCTCTCTCGATCGATCGAATCGATTCCGGAGTCACCTAGTGCAG  8580 fluorescence intensity (a.u.)
25. TCTCCCTTTCATTTTTATGTATGTTGGAATTATTTTTGTTCGGAGTCACCTAGTGCAG  8590 fluorescence intensity (a.u.)
26. CTCCGCTTCCGTCACCGATGAGTTTGGCCCCATCAACGTTCGGAGTCACCTAGTGCAG  8630 fluorescence intensity (a.u.)
27. ACCCCGTTCAACGCTCGCTTATATATATTCCCCTCTCGCACGGAGTCACCTAGTGCAG  8640 fluorescence intensity (a.u.)
28. CTACCGGTTTTGTATGTAAATGTTGTTGTTTTGTGATTTCCGGAGTCACCTAGTGCAG  8660 fluorescence intensity (a.u.)
29. CCCGACACAGGCACTGCATTCCGCGACACATTCCTCCCTACGGAGTCACCTAGTGCAG  8690 fluorescence intensity (a.u.)
30. CTAGCAATTTGTTTTTCTTCGTACATAAATCTTGAGACGACGGAGTCACCTAGTGCAG  8740 fluorescence intensity (a.u.)
31. CTCGGTATCGGATGGATTTATTCCGTTTTATAAGGGAGGGCGGAGTCACCTAGTGCAG  8790 fluorescence intensity (a.u.)
32. CACACCTTTCTCTTCTTCCACACTACAGTATTCAGCAACTCGGAGTCACCTAGTGCAG  8820 fluorescence intensity (a.u.)
33. GCGTCCAATCCGCCGTCGACTGCTGGCCACCGCGTCGATCCGGAGTCACCTAGTGCAG  8840 fluorescence intensity (a.u.)
34. AAGCTCTCATCCGATCATTGTCGCCGTCGCCCCTGAGTTCCGGAGTCACCTAGTGCAG  8860 fluorescence intensity (a.u.)
35. GACGAGGTTACTCCCCGTCATGCACTCTGCTTCATCGCGCCGGAGTCACCTAGTGCAG  8870 fluorescence intensity (a.u.)
36. ACCCACACACGCATTCACATCTCGCAATCTCACATCGCATCGGAGTCACCTAGTGCAG  8920 fluorescence intensity (a.u.)
37. AATATATGTATTGTTCAGGATGGTGGTGGACTGGTGCGCCCGGAGTCACCTAGTGCAG  8980 fluorescence intensity (a.u.)
38. GAAAGGTAGGGTTAGGAGGTGGCGCGTGCGTGTGGGTTGGCGGAGTCACCTAGTGCAG  9010 fluorescence intensity (a.u.)
39. GCAGGATAGACCCGCGAGCTGCTACACTTGTCCTCATTTACGGAGTCACCTAGTGCAG  9080 fluorescence intensity (a.u.)
40. GCGTTCCTACTTCCTGCCACCTCCGTCCCTCCGTACCAGTCGGAGTCACCTAGTGCAG  9090 fluorescence intensity (a.u.)
41. TCTCTCACTCGCTCTGTACGTACGTTGCCGCCTGCCCATGCGGAGTCACCTAGTGCAG  9100 fluorescence intensity (a.u.)
42. CAAATAGTTACATTCTCGTTGGGCCACCGCGGTTTGCTTCCGGAGTCACCTAGTGCAG  9100 fluorescence intensity (a.u.)
43. TCTGTTCTCACCTGTACATACATACATACGCACGCACGTACGGAGTCACCTAGTGCAG  9220 fluorescence intensity (a.u.)
44. TGTTGTAGTAGATGTTGCTAAATGTTTTTTTATAAACTCACGGAGTCACCTAGTGCAG  9230 fluorescence intensity (a.u.)
45. TTAGCTTAGGGTGGTATGTTTGGATCCATGGGCTAAATCACGGAGTCACCTAGTGCAG  9240 fluorescence intensity (a.u.)
46. TGCACACACTCACTCCTATAAACATATACACGTACACTCTCGGAGTCACCTAGTGCAG  9240 fluorescence intensity (a.u.)
47. ATACTTAGTTAGCTATACTATACTACTCTTCTTCTTCTTCCGGAGTCACCTAGTGCAG  9260 fluorescence intensity (a.u.)
48. CCCAGGCCGCCACCCTCGTCCACGCCAGCAACGTCCAGTACGGAGTCACCTAGTGCAG  9280 fluorescence intensity (a.u.)
49. GTATGTATGAATACATTAGTGCTTTCCAGTCTCTTGTACTCGGAGTCACCTAGTGCAG  9300 fluorescence intensity (a.u.)
50. GGCACTTTTTTCCCATCGCGTCCCATTTAGGTGCACGCCCCGGAGTCACCTAGTGCAG  9340 fluorescence intensity (a.u.)
51. GGATTCACCACTCATCACCATCTTTAAGGTTTACGTTGAACGGAGTCACCTAGTGCAG  9400 fluorescence intensity (a.u.)
52. ATGTGTCCTCATGTTTGGCGTGTCCCTTCTGACTGATTCGCGGAGTCACCTAGTGCAG  9530 fluorescence intensity (a.u.)
53. CCATTTCCTCATCGTTCCTCCCTTTTCCCCGATTCTCTACCGGAGTCACCTAGTGCAG  9540 fluorescence intensity (a.u.)
54. GGCATACTGTACTGCCTCTCTCTCTCTCTCTCTCTCTCTCCGGAGTCACCTAGTGCAG  9610 fluorescence intensity (a.u.)
55. CCACATATCATTGTCACGTATAATGGTATCTTGCAACTCACGGAGTCACCTAGTGCAG  9630 fluorescence intensity (a.u.)
56. CCTCGCCGTCACGCTGGCGGTCGCCACCTCGTCGCTCTCCCGGAGTCACCTAGTGCAG  9700 fluorescence intensity (a.u.)
57. TGACATTTAAATTCTGTTTCTCTCTTTGTGTTTTAGTTCCCGGAGTCACCTAGTGCAG  9720 fluorescence intensity (a.u.)
58. GCGCGGGACGGGAGACTCCTTTTGTTTGTCACTTTCCGCCCGGAGTCACCTAGTGCAG  9730 fluorescence intensity (a.u.)
59. GGTATCATTTGTTAGAGTGCGCAGTCCGACCCACCAACCGCGGAGTCACCTAGTGCAG  9750 fluorescence intensity (a.u.)
60. TTGGTTCAGCTCAACCTCATGCTCCACGCTATCCGCCACTCGGAGTCACCTAGTGCAG  9760 fluorescence intensity (a.u.)
61. TGGCGCCATATGCTACAGTCGATTTTTTTTTAGCCACTTACGGAGTCACCTAGTGCAG  9820 fluorescence intensity (a.u.)
62. ACACCCTGACGGTCCAGCATGATCCATCAAATCCATCGAACGGAGTCACCTAGTGCAG  9970 fluorescence intensity (a.u.)
63. GCCGCCGTCACCACTAGATCTCCTCGTGTTGAGCTCGCAACGGAGTCACCTAGTGCAG  10100 fluorescence intensity (a.u.)
64. ATCTTCCTTATATATACGCGCTCTCCCATTCGCGTGTGCTCGGAGTCACCTAGTGCAG  10100 fluorescence intensity (a.u.)
65. CTGGTTTCCATGCCCAACGTTTGACCGTTCGTCTTATTTGCGGAGTCACCTAGTGCAG  10300 fluorescence intensity (a.u.)
66. CCACTTTATCTTTTCCGTTCTATTTTTTAACTAACTCCGTCGGAGTCACCTAGTGCAG  10300 fluorescence intensity (a.u.)
67. AATCTCTCAATCTATGCCTATGCCCAACAACACGTTCTAACGGAGTCACCTAGTGCAG  10300 fluorescence intensity (a.u.)
68. AGTTATCTTGCTACTATTTCTAAGTGATGTATTGGCTTATCGGAGTCACCTAGTGCAG  10400 fluorescence intensity (a.u.)
69. TCCGCCCTCATTATCTCCTCGTTTTTCCCTGATCTTTTCTCGGAGTCACCTAGTGCAG  10400 fluorescence intensity (a.u.)
70. GGATCAGTAATGCCCATGGTCTTTTTCTACATATGTCATTCGGAGTCACCTAGTGCAG  10500 fluorescence intensity (a.u.)
71. GGTTGGTAGTGGTGAACTGGTTGGTGTTGGTGTTGTTGTTCGGAGTCACCTAGTGCAG  10700 fluorescence intensity (a.u.)
72. TTCTTGCTAGTTCTTGTAGTATCTGGTTCTTGCTAGTTCTCGGAGTCACCTAGTGCAG  10800 fluorescence intensity (a.u.)
73. GACTCGGACACGGACCCTGCCGGTCTGACCGCCCACATACCGGAGTCACCTAGTGCAG  11100 fluorescence intensity (a.u.)
74. GGGGTTAGCTATTATCGGACAACTTGGCATATTGAAATTTCGGAGTCACCTAGTGCAG  11600 fluorescence intensity (a.u.)
75. TGTGCCACTTTGCGGTTACTATATGCGCTGTTTGTGTCTTCGGAGTCACCTAGTGCAG  11600 fluorescence intensity (a.u.)
76. ACCCTACCTTACCTGCTCCTACTACTGCTCGCCTCGCTTACGGAGTCACCTAGTGCAG  11700 fluorescence intensity (a.u.)
77. TGTAACCTACTCCTGTCTAATTCCTGCGCTTAACTAAATTCGGAGTCACCTAGTGCAG  11800 fluorescence intensity (a.u.)
78. CCACCCGCTGTTGCTTCCGCATCACCCATTCCCTTTTTCCCGGAGTCACCTAGTGCAG  12100 fluorescence intensity (a.u.)
79. AGGCGGAGGAGGGGAGGCGGAAGGGGTTCGCGTCGGCGGCCGGAGTCACCTAGTGCAG  12200 fluorescence intensity (a.u.)
80. ATCACCACCACCACCGCACGGGCGGGCGGGCGGGCGATCGCGGAGTCACCTAGTGCAG  12400 fluorescence intensity (a.u.)
81. CGTGTTGGGGTTCTCTTCCTGCTGCTTTGGCCACCTGGGACGGAGTCACCTAGTGCAG  12500 fluorescence intensity (a.u.)
82. AGGTTTTATTTTCTTTCCACGCCGTTCGCTTCCCGCAATCCGGAGTCACCTAGTGCAG  13200 fluorescence intensity (a.u.)
83. GCTCTCCTGCCACCGGGCCTCCACATTCGGCGTCGCACTCCGGAGTCACCTAGTGCAG  14300 fluorescence intensity (a.u.)
84. TGTTTGACACCGTTGACTTTTTAGCACATGTTTGACCGTTCGGAGTCACCTAGTGCAG  38000 fluorescence intensity (a.u.)
